Measured values reported in the supplement of paper PMC11006884.
The list shows a part of the results, in another mix than the full data.

Chains of the proteins cited; added tags and fusions are not shown. Lines headed by an entry give the natural chain unless they say otherwise; changes in a name come on top.
UniProt P49459, whole entry, looked up: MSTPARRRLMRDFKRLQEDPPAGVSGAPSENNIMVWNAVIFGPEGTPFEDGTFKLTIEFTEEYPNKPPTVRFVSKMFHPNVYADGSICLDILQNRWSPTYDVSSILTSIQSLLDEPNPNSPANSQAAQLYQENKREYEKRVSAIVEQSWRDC
UniProt P46013: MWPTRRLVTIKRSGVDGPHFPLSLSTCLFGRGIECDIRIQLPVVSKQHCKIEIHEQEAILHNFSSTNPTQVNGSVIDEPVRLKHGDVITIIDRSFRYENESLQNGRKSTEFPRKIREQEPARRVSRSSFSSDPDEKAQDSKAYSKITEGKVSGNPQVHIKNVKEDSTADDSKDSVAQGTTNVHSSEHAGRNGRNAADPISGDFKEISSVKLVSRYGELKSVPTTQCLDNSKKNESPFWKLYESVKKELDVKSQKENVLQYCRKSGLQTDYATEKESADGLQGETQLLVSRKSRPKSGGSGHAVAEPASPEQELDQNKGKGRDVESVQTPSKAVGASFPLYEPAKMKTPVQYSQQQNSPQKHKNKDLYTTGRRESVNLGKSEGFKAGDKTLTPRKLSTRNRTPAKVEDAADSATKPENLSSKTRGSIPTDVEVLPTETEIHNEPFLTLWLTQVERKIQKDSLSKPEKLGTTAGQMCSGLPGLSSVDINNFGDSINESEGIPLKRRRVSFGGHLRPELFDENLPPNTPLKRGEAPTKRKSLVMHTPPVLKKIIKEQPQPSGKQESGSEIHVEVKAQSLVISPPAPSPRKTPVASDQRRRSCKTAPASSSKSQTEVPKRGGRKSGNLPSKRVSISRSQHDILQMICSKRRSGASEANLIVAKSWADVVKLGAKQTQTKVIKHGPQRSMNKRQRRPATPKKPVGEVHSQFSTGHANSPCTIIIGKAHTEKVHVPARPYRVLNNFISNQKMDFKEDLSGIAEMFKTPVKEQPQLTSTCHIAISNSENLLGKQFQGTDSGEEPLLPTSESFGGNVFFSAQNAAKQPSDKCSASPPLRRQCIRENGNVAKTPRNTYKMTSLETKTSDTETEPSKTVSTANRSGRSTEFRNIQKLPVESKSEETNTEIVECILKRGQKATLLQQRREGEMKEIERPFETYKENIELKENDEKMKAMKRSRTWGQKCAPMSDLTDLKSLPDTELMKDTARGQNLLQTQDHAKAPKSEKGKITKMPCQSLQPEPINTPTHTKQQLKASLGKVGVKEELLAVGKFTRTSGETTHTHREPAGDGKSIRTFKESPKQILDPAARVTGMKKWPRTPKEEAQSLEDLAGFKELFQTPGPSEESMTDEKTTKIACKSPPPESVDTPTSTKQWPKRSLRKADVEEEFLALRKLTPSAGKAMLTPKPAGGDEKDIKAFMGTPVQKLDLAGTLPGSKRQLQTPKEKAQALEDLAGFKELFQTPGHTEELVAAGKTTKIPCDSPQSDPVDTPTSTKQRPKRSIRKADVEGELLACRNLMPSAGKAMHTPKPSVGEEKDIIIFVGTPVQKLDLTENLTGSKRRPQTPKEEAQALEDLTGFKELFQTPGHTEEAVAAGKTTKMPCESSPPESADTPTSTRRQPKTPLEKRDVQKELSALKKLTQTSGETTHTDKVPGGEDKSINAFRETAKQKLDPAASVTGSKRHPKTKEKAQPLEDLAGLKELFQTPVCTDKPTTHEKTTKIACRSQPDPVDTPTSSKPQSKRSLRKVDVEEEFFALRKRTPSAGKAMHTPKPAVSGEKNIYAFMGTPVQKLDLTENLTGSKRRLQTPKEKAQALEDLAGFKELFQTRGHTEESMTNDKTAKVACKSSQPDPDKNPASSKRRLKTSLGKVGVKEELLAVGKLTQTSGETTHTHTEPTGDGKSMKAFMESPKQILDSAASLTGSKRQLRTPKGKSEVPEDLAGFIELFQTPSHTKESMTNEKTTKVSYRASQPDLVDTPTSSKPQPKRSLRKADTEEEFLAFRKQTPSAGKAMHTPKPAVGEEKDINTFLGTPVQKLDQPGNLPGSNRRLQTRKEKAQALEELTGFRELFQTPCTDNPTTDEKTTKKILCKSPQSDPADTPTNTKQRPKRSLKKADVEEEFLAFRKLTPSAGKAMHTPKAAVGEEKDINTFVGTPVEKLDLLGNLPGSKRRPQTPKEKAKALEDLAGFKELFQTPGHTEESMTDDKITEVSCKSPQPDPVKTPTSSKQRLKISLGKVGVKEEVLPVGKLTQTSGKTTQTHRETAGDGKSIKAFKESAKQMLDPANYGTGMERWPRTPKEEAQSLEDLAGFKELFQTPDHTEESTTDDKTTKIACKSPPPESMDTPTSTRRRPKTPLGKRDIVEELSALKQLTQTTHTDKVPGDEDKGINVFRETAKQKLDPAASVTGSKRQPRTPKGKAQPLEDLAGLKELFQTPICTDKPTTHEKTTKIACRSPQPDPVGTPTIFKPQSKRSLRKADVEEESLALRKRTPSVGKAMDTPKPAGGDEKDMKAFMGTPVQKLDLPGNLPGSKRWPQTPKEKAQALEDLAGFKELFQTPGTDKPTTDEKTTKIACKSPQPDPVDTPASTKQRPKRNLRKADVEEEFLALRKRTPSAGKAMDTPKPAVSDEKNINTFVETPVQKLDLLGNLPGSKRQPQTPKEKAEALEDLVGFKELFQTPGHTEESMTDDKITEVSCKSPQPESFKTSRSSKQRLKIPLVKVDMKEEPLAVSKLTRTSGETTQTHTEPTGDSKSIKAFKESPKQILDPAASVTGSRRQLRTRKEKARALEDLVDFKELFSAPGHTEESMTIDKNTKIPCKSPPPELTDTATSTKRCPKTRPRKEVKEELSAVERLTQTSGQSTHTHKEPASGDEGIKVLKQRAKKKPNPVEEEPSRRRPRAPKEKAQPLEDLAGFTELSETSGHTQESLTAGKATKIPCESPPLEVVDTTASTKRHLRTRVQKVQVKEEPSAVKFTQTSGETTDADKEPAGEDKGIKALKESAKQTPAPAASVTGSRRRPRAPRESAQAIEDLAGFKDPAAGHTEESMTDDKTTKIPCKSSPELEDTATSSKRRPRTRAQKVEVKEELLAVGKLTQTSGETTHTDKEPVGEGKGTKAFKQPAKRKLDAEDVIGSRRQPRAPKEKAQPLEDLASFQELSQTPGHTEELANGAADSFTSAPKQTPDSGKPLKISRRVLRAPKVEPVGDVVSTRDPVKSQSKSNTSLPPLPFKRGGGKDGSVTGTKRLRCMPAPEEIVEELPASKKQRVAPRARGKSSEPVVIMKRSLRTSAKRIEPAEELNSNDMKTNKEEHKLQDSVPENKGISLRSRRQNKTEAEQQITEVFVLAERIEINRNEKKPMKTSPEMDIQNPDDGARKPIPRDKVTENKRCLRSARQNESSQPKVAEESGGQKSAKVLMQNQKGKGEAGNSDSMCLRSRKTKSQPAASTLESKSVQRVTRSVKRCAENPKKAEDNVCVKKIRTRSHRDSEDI
UniProt P48643, whole entry, looked up: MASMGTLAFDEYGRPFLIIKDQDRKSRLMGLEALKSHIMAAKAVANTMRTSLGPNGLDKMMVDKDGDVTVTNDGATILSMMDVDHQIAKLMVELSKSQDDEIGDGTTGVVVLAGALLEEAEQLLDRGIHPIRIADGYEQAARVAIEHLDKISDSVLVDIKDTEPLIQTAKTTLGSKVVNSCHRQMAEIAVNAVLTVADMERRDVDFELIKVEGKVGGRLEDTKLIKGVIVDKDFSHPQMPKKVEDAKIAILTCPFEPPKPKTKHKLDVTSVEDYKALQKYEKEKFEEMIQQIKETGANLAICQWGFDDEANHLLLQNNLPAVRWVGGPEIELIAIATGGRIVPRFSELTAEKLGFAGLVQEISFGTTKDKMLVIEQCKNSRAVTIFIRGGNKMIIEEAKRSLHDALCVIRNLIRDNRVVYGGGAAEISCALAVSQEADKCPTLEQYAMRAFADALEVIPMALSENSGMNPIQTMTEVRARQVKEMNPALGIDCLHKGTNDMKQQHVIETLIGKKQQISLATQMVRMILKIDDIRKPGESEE
UniProt P51532, whole entry, looked up: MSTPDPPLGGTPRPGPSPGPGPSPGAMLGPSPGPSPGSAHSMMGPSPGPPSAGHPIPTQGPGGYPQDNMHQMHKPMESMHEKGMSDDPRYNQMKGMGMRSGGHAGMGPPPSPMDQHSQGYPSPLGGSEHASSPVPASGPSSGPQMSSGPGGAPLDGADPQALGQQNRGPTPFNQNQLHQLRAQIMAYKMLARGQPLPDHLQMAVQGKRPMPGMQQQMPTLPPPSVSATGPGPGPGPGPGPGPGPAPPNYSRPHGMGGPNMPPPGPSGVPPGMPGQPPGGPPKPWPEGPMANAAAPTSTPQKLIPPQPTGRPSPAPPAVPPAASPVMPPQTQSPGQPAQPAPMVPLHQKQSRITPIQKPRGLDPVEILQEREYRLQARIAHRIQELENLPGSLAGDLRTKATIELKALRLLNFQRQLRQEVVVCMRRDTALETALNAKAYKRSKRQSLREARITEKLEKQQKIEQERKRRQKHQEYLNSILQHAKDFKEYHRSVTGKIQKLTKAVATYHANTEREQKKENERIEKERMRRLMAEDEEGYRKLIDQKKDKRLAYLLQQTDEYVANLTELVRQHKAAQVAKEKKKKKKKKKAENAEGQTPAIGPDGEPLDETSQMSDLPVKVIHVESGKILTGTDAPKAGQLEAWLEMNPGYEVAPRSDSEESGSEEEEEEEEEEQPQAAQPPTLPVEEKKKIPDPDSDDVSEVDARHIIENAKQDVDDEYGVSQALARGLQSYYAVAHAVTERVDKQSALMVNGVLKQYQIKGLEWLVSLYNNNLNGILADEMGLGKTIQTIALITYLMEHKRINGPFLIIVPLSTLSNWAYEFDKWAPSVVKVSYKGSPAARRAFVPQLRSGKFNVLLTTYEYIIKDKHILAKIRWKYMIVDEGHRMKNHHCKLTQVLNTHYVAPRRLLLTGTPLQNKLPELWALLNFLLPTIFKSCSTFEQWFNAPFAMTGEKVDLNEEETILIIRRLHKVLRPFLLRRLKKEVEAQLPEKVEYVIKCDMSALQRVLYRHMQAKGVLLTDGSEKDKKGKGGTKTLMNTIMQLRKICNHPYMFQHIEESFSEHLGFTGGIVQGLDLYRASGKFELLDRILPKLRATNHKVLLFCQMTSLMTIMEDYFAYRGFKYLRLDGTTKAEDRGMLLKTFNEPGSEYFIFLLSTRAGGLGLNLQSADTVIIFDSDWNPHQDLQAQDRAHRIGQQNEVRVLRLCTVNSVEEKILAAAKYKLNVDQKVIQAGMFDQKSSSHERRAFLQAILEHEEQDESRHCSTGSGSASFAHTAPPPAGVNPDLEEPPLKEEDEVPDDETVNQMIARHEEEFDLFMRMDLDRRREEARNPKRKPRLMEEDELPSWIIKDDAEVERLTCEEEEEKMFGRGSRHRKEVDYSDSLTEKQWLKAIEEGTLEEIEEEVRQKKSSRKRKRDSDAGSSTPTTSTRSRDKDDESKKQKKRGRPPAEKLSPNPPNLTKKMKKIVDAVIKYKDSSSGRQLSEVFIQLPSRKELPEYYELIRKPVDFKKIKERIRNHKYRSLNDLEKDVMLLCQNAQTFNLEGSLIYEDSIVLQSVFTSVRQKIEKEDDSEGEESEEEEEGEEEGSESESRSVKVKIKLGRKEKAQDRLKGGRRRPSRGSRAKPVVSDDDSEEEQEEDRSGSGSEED
UniProt P49458: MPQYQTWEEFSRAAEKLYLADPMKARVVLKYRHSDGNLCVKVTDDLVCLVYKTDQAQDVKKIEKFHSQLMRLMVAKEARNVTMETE
UniProt P48059, whole entry, looked up: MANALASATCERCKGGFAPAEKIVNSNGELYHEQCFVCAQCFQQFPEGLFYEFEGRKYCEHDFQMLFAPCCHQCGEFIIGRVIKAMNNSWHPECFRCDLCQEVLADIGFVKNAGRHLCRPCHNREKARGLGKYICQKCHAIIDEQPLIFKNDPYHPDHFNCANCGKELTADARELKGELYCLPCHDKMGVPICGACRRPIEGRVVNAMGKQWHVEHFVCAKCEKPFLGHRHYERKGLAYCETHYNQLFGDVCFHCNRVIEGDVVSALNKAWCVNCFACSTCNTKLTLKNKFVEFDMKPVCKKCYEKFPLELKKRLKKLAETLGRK

Compound: COC(=O)C#Cc1ccccc1 [methyl 3-phenylpropiolate]
Experiment: log2 ratio of iodoacetamide-alkyne labeling of the cysteine site, DMSO over compound (competition); higher = stronger covalent engagement of the cysteine by the compound, active = 1 or more
Conditions: 500 µM; treatment time 1 h; system: HEK293T cell lysate
How it was run: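 Electrophile (500 µM) or vehicle was added to HEK293T lysate (2 mg/mL) for 1 h at ambient temperature before iodoacetamide alkyne labelling (1 h) and click coupling to sCIP-TMT reagents. After pooling, overnight trypsin digestion at 37 °C, streptavidin enrichment and acid elution, peptides were measured by Orbitrap Eclipse LC-MS/MS with FAIMS and quantified in FragPipe. Each cysteine's log2 competition ratio compares mean control-channel with mean compound-channel reporter intensity, control over compound. Data came from duplicate channels across three replicates, excluding cysteines quantified in only one replicate.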

log2 ratio of iodoacetamide-alkyne labeling, active:
CRKL C249 (UniProt P46109) 1.61, RPS5 C66 (UniProt P46782) 2.5

log2 ratio of iodoacetamide-alkyne labeling, inactive:
UniProt P49459_C88 0.243, RPS5 C155 (UniProt P46782) 0.277, MKI67 C1479 (UniProt P46013) 0.31, GCLC C553 (UniProt P48506) -0.0336, CCT8 C430 (UniProt P50990) 0.518, METAP2 C290 (UniProt P50579) 0.611, MSH2 C176 (UniProt P43246) 0.0995, CCT5 C377 (UniProt P48643) 0.18, UTRN C862 (UniProt P46939) 0.314, UniProt P46379_C856 0.0321, NASP C708 (UniProt P49321) 0.364, SMARCA4 C1359 (UniProt P51532) 0.353, GMPS C456 (UniProt P49915) -0.041, ST13 C16 (UniProt P50502) 0.163, FASN C1448 (UniProt P49327) 0.263, MKI67 C2706 (UniProt P46013) 0.454, SRP9 C39 (UniProt P49458) 0.0651, RANBP2 C2407 (UniProt P49792) 0.116, CDK8 C25 (UniProt P49336) 0.154, PREP C532 (UniProt P48147) 0.134, IDH3G C81 (UniProt P51553) 0.412, CAPZB C8 (UniProt P47756) -0.00606, FNTB C11 (UniProt P49356) 0.277, PRIM2 C25 (UniProt P49643) 0.0724, METAP2 C121 (UniProt P50579) 0.643, PREP C25 (UniProt P48147) 0.143, UniProt P49840_C408 0.29, RPL34 C46 (UniProt P49207) 0.949, FASN C1127 (UniProt P49327) 0.394, MKI67 C3014 (UniProt P46013) 0.246, MAP1B C1228 (UniProt P46821) 0.169, LIMS1 C303 (UniProt P48059) 0.548, GDI2 C202 (UniProt P50395) -0.0158, RANBP2 C206 (UniProt P49792) 0.511, IREB2 C137 (UniProt P48200) 0.995
